Reference: PMC10977894
These are yes or no findings as the source states them, for the method shown. Binding seen in cells or lysates may run through a third protein. Some results given as binding are weak or reduced against the parent protein; the word gives no strength.

The chains behind the UniProt entries cited, without tags or fusion partners. Residues count along the entry.
UniProt P46379: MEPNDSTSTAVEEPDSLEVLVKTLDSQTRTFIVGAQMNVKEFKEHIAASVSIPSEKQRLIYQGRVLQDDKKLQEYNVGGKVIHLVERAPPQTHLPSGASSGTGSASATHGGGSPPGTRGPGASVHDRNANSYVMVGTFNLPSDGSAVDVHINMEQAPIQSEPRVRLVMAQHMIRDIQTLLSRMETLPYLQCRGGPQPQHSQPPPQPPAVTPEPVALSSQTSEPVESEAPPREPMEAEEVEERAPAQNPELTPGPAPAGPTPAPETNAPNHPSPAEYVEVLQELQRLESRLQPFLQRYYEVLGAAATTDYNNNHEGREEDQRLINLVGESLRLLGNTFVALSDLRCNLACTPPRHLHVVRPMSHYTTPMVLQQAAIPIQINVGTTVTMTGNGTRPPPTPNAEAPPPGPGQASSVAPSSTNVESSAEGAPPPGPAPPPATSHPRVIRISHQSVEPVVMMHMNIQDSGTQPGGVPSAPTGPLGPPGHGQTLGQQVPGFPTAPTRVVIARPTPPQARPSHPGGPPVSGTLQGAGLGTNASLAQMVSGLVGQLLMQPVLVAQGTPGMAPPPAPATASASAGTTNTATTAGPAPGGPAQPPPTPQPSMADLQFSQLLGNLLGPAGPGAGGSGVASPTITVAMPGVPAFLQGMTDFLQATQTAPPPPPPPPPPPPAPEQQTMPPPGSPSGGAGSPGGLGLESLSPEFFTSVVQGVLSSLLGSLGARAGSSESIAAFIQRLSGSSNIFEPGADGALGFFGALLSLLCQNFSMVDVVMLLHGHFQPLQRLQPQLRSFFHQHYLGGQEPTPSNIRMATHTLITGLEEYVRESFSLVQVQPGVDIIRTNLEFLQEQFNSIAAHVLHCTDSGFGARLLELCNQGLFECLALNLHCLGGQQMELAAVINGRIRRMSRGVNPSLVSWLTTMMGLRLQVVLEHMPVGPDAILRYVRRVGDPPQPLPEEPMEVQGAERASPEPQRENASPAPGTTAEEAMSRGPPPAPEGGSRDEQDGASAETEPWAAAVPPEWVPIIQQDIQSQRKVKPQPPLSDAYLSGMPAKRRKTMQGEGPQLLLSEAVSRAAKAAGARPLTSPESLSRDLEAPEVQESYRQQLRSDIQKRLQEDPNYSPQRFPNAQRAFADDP
UniProt P03428, residues 1-247: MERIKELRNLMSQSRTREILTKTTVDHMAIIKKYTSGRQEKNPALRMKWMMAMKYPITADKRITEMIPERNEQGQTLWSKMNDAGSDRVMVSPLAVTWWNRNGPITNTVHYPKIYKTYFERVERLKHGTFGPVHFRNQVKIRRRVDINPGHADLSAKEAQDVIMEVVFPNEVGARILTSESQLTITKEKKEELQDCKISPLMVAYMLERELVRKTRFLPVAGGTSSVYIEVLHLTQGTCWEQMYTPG
UniProt P03466: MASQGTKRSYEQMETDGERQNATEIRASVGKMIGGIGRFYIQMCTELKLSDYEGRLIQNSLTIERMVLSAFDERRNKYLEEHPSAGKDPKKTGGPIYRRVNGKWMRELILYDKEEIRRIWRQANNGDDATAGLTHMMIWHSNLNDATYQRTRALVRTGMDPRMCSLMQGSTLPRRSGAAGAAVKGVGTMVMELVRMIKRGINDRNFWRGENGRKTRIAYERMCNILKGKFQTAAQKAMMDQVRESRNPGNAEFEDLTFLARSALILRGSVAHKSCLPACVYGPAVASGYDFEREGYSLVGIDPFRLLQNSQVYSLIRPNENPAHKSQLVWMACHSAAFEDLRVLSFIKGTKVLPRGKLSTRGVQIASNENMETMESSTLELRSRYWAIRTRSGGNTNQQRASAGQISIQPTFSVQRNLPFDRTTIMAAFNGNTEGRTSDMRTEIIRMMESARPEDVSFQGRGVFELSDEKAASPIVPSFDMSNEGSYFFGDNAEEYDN
UniProt P03431: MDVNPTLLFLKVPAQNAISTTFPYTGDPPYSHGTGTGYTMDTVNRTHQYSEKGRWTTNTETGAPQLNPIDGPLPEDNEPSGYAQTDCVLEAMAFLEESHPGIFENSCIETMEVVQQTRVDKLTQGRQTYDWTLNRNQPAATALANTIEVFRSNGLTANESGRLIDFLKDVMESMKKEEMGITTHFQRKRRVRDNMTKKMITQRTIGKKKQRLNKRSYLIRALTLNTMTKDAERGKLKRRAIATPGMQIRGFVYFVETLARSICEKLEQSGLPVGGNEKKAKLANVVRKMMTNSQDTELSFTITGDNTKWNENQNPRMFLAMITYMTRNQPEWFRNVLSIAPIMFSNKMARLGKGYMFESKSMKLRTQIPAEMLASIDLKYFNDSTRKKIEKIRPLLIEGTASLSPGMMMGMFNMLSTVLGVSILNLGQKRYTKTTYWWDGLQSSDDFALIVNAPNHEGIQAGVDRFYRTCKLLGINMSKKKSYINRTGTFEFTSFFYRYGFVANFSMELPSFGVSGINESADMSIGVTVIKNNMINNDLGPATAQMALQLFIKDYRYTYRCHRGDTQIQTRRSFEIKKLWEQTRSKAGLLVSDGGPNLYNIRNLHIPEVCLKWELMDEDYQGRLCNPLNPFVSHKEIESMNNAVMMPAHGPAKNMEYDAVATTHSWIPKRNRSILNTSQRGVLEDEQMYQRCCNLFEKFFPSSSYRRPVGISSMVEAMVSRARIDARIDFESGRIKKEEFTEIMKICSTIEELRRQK

Legend:
[1] = biological target: BAG6-HA (BCL2-associated athanogene 6, full-length, HA-tagged) (UniProt P46379); assay: co-IP
[2] = biological target: N-terminal PB2-Flag (residues 1-247) (influenza A virus (strain not stated)) (UniProt P03428); assay: co-IP

Row | Substance | binding [1] | binding [2]
1 | M1 of H1N1 PR8 virus in infected cells (from UniProt P03485 1-252) | no binding | 
2 | NP-Flag (from UniProt P03466 1-498) | no binding | 
3 | BAG6-HA (BCL2-associated athanogene 6, full-length, HA-tagged) (from UniProt P46379 1-1132) |  | binds
4 | PB1-Flag (from UniProt P03431 1-757) | no binding | 
